Data taken from ChEMBL document CHEMBL3988442, “University of Dundee, Small-Polar-MMV Screening Library” (2021).

Sequences of proteins named here, by UniProt entry; tags and fusion partners are left off. Residues count along the entry.
UniProt A4I591, 1-473: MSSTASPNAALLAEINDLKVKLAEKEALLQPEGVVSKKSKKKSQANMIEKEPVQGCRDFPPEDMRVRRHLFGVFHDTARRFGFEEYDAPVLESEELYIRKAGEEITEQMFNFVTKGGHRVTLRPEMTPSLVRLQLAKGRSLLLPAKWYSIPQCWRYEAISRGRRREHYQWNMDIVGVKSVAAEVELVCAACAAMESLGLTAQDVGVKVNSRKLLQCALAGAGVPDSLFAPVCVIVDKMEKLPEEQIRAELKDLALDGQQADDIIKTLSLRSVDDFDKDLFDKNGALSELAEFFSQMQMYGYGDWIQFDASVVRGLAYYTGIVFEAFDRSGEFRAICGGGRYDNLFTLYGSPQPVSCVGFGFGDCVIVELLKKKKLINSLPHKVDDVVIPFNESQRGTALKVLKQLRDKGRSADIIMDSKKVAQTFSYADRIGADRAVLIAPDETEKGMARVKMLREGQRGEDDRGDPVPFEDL
UniProt P9WPC5, whole entry: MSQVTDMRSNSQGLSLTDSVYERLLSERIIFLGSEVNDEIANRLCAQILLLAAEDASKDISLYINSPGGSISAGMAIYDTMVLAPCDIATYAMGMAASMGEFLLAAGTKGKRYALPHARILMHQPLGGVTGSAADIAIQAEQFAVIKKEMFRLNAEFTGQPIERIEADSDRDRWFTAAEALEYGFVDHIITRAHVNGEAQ
UniProt P9WPC3, whole entry partner: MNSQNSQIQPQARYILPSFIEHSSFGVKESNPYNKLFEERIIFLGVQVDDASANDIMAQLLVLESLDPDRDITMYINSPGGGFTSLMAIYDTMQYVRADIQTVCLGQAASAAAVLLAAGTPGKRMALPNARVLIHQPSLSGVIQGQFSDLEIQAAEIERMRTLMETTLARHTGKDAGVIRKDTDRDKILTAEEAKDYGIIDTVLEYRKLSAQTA
UniProt Q4DA54, 1-478: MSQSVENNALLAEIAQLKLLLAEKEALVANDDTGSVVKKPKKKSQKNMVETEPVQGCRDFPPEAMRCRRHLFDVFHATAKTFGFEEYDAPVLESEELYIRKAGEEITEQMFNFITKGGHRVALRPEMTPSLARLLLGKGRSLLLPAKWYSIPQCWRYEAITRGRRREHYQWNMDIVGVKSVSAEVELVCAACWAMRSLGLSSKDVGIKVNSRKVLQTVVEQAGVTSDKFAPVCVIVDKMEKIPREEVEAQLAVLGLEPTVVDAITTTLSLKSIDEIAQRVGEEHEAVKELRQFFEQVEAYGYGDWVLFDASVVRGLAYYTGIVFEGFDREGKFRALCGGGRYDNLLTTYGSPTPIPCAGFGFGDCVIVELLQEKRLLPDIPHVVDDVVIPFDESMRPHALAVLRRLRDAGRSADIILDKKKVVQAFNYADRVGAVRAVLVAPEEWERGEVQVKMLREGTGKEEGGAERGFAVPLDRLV

Toxoplasma: 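Assay of Toxoplasma gondii numbers, read through their beta-galactosidase reporter with a colour substrate. Concentration: 10 µM. Higher reads as fewer parasites (inferred from which compounds were picked for retests). About 67,000 compounds were tested under these conditions; 0.38% (about 260) showed 50% or more at least once.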
T. brucei: 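Whole-parasite assay of Trypanosoma brucei over 72 hours; the read-out is not stated. Concentration: 30 µM. Direction is inferred from retests: higher values go with stronger inhibition. Values scatter widely below zero; nearly all retest evidence comes from the higher of the two concentrations used. About 64,000 compounds were tested under these conditions; 1.5% (about 940) showed 50% or more at least once.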
LiHisRS: 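Histidine-tRNA ligase, Leishmania infantum (UniProt A4I591). Enzyme assay of histidyl-tRNA synthetase; the read-out is not stated. Compounds at 30 µM. Direction is inferred from retests: higher values go with stronger inhibition. The assay is labelled LdHisRS but filed under L. infantum. Size under these conditions: about 69,000 compounds, about 410 of them at 50% or above in at least one test.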
ClpP1P2: 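ClpP1P2, Mycobacterium tuberculosis (UniProt P9WPC5 and UniProt P9WPC3). Protease assay of ClpP1P2, read by the AMC dye that it sets free. Compounds at 50 µM. Direction is inferred from only a few compounds that gave an IC50; most scored high, so higher reads as stronger inhibition. Most other retested compounds had strongly negative values. Of about 69,000 compounds tested this way, about 10 (0.015%) reached 50% or more in at least one test.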
TcHisRS: 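Histidine-tRNA ligase, Trypanosoma cruzi CL Brener (UniProt Q4DA54). Enzyme assay of histidyl-tRNA synthetase; the read-out is not stated. Concentration: 30 µM. The record gives no direction; compounds that gave an IC50 in retests scored well above the rest, so higher reads as stronger inhibition. Size under these conditions: about 69,000 compounds, about 31 of them at 50% or above in at least one test.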

Results are given as percent effect.
How 0% and 100% were set is not recorded. Most values in the screen are low, and negative values occur.
Compounds were drawn at random from those tested, without regard to their results.
A dash means the value is not listed here; it may have been measured.

SMILES	Toxoplasma	T. brucei	LiHisRS	ClpP1P2	TcHisRS
CC(NC(=O)C1=NN(C)C(=O)CC1)c1cccc(Cl)c1 (centres undefined)	3.239	-29.03	24.69	0.7148	3.067
CC(C)c1cc(C(=O)O)nc2[nH]c(=O)[nH]c(=O)c12	-0.4005	-14.72	5.495	-5.699	-1.98
CC(C)CCN1Cc2c(C(=O)N3CCCC3)nn(C)c2C1.O=C(O)C(F)(F)F	0.3723	-27.67	-	-	-
CN1CC2(CCN(C(=O)C3CCC3)CC2)COc2ccccc2S1(=O)=O	7.872	-23.47	8.333	-8.879	0.9346
Cc1csc(CN2C[C@@H]3CN(S(C)(=O)=O)CCO[C@@H]3C2)n1	-	-	8	3.57	-1.031
Fc1cccc(C2(CNC3CCCNC3)CCOCC2)c1 (centres undefined)	13.93	-14.17	19.54	-4.813	7.216
COc1ccc(C[C@H]2CNCC[C@H]2OC)cc1.O=C(O)C(F)(F)F	6.25	13.15	-	-	-
Cc1ccc(C(=O)N(Cc2cccc(F)c2)C2CC2)c(=O)[nH]1	-37.3	-34.51	-2.74	-9.626	2.703
CCN1CCN(c2ccccc2NC(=O)NCc2ccon2)CC1	-15.52	-63.99	10.62	-17.22	0.8929
CCN(Cc1cnn(C)c1)S(=O)(=O)N1CCCC1c1ccco1 (centres undefined)	-0.07955	-3.479	13.68	-16.88	1.622
CC(C)OCCC1CCCCN1S(N)(=O)=O (centres undefined)	2.822	-64.44	3.333	11.07	4.902
CCN(CC)CC1CN(Cc2nccs2)Cc2nccn2C1.O=C(O)C(F)(F)F.O=C(O)C(F)(F)F (centres undefined)	1.71	-28.57	-	-	-
CN(Cc1cccc(F)c1)C(=O)CN1CCCCC1Cn1cncn1 (centres undefined)	5.854	-14.33	2.83	-12.56	4.184
COCCO[C@H]1CCN(Cc2cccnc2)[C@H]1Cc1cccnc1	-	-	12.5	12.31	6.542
Cc1ccc(S(N)(=O)=O)cc1C(=O)NCC1Cc2ccccc2O1 (centres undefined)	-0.9259	-28.19	14.52	3.176	7.216
Cc1ccccc1-c1cncc(C2CCN(CCO)CC2)n1	23.14	-9.755	14.43	1.885	7.778
CCn1nnc2c1C(COCC(=O)N(C)C)CN(Cc1ccco1)C2.O=C(O)C(F)(F)F (centres undefined)	-11.56	-38.68	-	-	-
[H][C@@]12CCN(Cc3ccccc3)C[C@@]1([H])O[C@H](C(=O)NCC1CC1)C2	13.1	-1.327	-	-	-
CCc1cc(C(=O)N2CC[C@@H](c3ccc4ccccc4c3)[C@H](O)C2)[nH]n1	-1.208	13.93	13.27	12.14	7.2
Cc1nc(N(C)C)nc(N(C)Cc2cnccn2)c1C	14.33	-27.92	20.41	15.61	13
CC(C)C[C@@H]1N[C@H](C(=O)NC(C)C)Cc2c[nH]c3cccc1c23	21.49	19.91	22.97	-9.717	8.696
COc1cccc(CN2CC(=O)N(c3ccccc3C)CC2C)c1OC (centres undefined)	-26.12	-34.65	38.55	-9.466	13.81
CO[C@@H]1CCN(S(=O)(=O)c2cn(C)cn2)[C@H]1Cc1cnn(C)c1.O=C(O)C(F)(F)F	6.281	2.39	-	-	-
O=C(c1cccs1)N1CCC2(CC1)CN(c1ccsc1)C(=O)CO2	1.285	-291.5	22	4.047	8.824
O=C(O)C(F)(F)F.O=C(O)C(F)(F)F.[H][C@]12C[C@@H](CN(C)C)N(CC3CC3)[C@@]1([H])CCN(C(=O)c1cnoc1C)C2	-16.23	-0.8006	-	-	-
CC(=O)N(C)CC(=O)NC1(c2ccc(F)cc2)CCCC1	6.067	-9.426	0	-7.245	1.807
CCOc1ccc(NC(=O)c2cccc(OC)c2OC)cc1	-12.79	8.574	8.219	-9.047	1.053
O=C1CO[C@H]2CN(Cc3c[nH]c4ccccc34)C[C@H]2N1	-	-	19.44	-8.957	6.931
COc1ccc(C(=O)Nc2c(C)nn(C(C)C)c2C)cc1	-6.99	-44.07	-1.613	-3.04	-14.29
CC(C)NC(=O)c1ccc2c(c1)nc1n2CCN(C(C)C)C1	-8.01	-14.37	13.59	-7.57	-1.639
CSCc1nc(CCNC(=O)C(N)c2c(C)n[nH]c2C)cs1 (centres undefined)	-5.887	17.52	18.99	-4.584	4.741
Cc1ccc(C(=O)NCCC2CCN(C)CC2)cc1N(C)S(C)(=O)=O	3.395	-14.09	4.651	-14.29	3.571
Cc1ccc(CN2C[C@@H]3CN(c4ncc(F)cn4)C[C@@H]3C2)cc1	-	-	8.772	-11.83	4.301
OCC1CCCCN1CCCNCc1cc(O)c2cc(F)ccc2n1 (centres undefined)	-1.864	-55.18	13.19	6.347	9.036
Cc1ncsc1CN1CCn2c(COc3cccnc3)cnc2C1C.O=C(O)C(F)(F)F.O=C(O)C(F)(F)F (centres undefined)	-2.884	-6.449	-	-	-
CCc1ncc2c(n1)CN(Cc1cc(C)on1)CC2	6.802	-40.57	19.75	-12.89	12.88
O=C(NCCOc1ccc(F)c(F)c1)NCc1cccc(CO)c1	4.732	43.24	13.46	-9.299	1.667
COc1ccc(C(=O)N2CC[C@](C)(O)[C@H](C)C2)cc1N1CCOCC1	-3.605	-31.16	0	-14.76	-1.734
Cc1c(C)c2c(c(C)c1O)CC[C@](C)(C(=O)O)O2	-2.823	1.532	35.64	-6.475	7.955
CC(=O)N1CCN(c2cc(-c3ccccc3)nc3c(C)c(C)nn23)CC1	3.893	5.387	17.14	-11.79	1.653
Cn1c(Cn2ncc(N3CCCCC3)cc2=O)nc2ccccc21	17.49	-16.96	2.797	-204.7	1.493

2 of the entries, repeated:

* CCN(Cc1cnn(C)c1)S(=O)(=O)N1CCCC1c1ccco1 (centres undefined) : Toxoplasma: -0.07955%; T. brucei: -3.479%; LiHisRS: 13.68%; ClpP1P2: -16.88%; TcHisRS: 1.622%
* CO[C@@H]1CCN(S(=O)(=O)c2cn(C)cn2)[C@H]1Cc1cnn(C)c1.O=C(O)C(F)(F)F : Toxoplasma: 6.281%; T. brucei: 2.39%